Results: publication PMC5017783
Results are given in words; binding and its absence hold for the method and conditions named. In cells and extracts the contact can be indirect. Some binding calls cover weakened binding; strength is not graded here.

Protein sequences, listed by entry. Tags and fused reporters are not part of them.
UniProt Q9JI15: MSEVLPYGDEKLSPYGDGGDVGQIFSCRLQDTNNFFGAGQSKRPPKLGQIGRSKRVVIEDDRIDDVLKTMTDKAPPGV
UniProt P11275: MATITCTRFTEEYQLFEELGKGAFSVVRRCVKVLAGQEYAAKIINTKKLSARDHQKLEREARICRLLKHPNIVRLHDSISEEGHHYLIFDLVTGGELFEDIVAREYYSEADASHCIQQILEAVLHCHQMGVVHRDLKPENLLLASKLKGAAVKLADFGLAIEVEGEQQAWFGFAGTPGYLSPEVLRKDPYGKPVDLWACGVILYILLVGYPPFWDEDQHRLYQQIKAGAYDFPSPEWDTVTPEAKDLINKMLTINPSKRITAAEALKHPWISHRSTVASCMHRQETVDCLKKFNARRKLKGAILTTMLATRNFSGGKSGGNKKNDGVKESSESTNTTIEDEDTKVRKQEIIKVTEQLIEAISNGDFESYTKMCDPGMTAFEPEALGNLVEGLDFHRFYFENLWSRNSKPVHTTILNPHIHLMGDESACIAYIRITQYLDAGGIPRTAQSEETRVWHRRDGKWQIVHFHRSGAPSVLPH

Tests used:
GST-CaMKIINα [1] = target: GST-CaMKIINα (UniProt Q9JI15); experiment: pull-down; GST pull-down on glutathione-sepharose; CaMKII incubated with the GST fusion in 50 mM Pipes pH 7.0, 0.1% BSA, 150 mM NaCl, 0.1% Tween-20, with or without 1 mM CaCl2 and 1 uM calmodulin, 1 hour at 4°C; Western blot with anti-α-CaMKII and anti-GST
GST-CaMKIINα [2] = target: GST-CaMKIINα (UniProt Q9JI15); experiment: pull-down; GST pull-down of CaMKII with GST-CaMKIINα in competition with His-GluN2B: both added simultaneously, or His-GluN2B added (one hour) after 20 min of CaMKII with GST-CaMKIINα; densitometry of three experiments

binding (GST-CaMKIINα [1]): binds | binding (GST-CaMKIINα [2]): binds
Substance: WT-α-CaMKII (from UniProt P11275 1-478) (enzyme)
